Data from PubChem BioAssay AID1794845 (National Center for Advancing Translational Sciences (NCATS), 2023).
Screen size: about 6,900 compounds; fewer than 10 were called active. Calls follow the shape of the dose curve; as a rule, active = well fitted curve in the direction sought with a large enough effect; inconclusive = small, poorly fitted or top-dose-only effect, or another doubt; inactive = no such curve, though single readings can be large or run the other way. Some of the results follow.

Sequences of proteins named here, by UniProt entry; tags and fusion partners are left off. A change or cut given only in a name is not applied to a line headed by its entry.
UniProt C7C422: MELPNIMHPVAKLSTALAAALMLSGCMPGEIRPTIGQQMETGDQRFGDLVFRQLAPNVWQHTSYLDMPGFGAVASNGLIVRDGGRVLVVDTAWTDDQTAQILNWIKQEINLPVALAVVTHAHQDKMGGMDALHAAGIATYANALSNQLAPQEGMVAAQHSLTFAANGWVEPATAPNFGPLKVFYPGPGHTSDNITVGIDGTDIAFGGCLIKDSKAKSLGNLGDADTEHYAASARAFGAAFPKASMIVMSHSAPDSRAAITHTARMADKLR

Target: Metallo-beta-lactamase type 2 (Klebsiella pneumoniae) (UniProt C7C422)
Experiment: qHTS to identify inhibitors of the New Delhi Metallo-beta-lactamase (NDM): primary screen against the NCATS Gemini Collection; also: % of control where 0% means no effect
Conditions: NDM-1 enzyme, meropenem hydrolysis, absorbance 300 nm; at 38.4 µM (top of the series) unless noted
Method in brief: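 Meropenem hydrolysis (50 uM final) by 2 nM NDM-1 read as 300 nm absorbance after 30 min, following >30 min compound–enzyme preincubation in HEPES pH 7.0 with 1 uM ZnSO4 and 0.01% Tween20.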

Row | SMILES | activity % (negative = inhibition)
1 | COC[C@@H]1CN(C(=O)CCc2c(C)nn(C)c2C)C[C@H]1c1ccccn1 | inactive: -0.973%
2 | O=C(Nc1ccc(Oc2ccccc2)cc1)O[C@@H]1CO[C@H]2[C@@H]1OC[C@@H]2n1nnnc1-c1ccc(-c2ccccc2)cc1 | inactive: -0.658%
3 | CN(Cc1ccccc1)Cc1nc(C2CCOC2)no1 (centres undefined) | inactive: -0.199%
4 | COc1ccccc1-c1ccc(CN2CCCC(c3nc4ccc(C)cc4c(=O)[nH]3)C2)cc1 (centres undefined) | inactive: 2.11%
5 | COc1cccc(N2C(=O)NC(=NC3CCCC3)C23CCCN(Cc2cccn2C)C3)c1 (centres undefined) | inactive: 10.5%
6 | COCCN1Cc2sccc2N(CC(O)COc2ccc(OC)cc2)CCC1=O (centres undefined) | inactive: 3.92%
7 | O=C(NCc1ccc(F)cc1)N1CCCC(Cc2noc(-c3cccnc3)n2)C1 (centres undefined) | inactive: 11.3%
8 | CC(=O)N1CC2(CCN(C(=O)NCc3ccccc3)CC2)CC1C(=O)O (centres undefined) | inactive: 6.85%
9 | C[C@@H](NCC1CCCC1)c1onc(-c2ccc(Cl)cc2)c1C(=O)O | inactive: 1.79% [at 57.5 µM]
10 | O=C(c1ccncc1)N1CCC(Cc2noc(-c3ccccc3)n2)C1 (centres undefined) | inactive: 4.42%
11 | CC(C)S(=O)(=O)N1CCC2(CC1)CC1C(=O)NCCN1C2 (centres undefined) | inactive: 24.6%
12 | O=C(N[C@@H]1COCC[C@@H]1OCC1CC1)c1ccc2c(c1)CCCO2 | inactive: -1.94%
13 | Cc1cc(OC2CN(Cc3ccnn3C)C2)ccc1F | inactive: 5.53% [at 57.5 µM]
14 | COc1ccc(CCNC(=O)c2c(-c3ccccc3)cc(=O)n3c2CCC3)cc1OC | inactive: 3.56%
15 | COCC(=O)N1CCCCC1c1nc(-c2ccccc2)n[nH]1 (centres undefined) | inactive: -0.423%
16 | CSCCC(=O)N1CCc2c(ncnc2N2CCOCC2)C1 | inactive: 0.138%
17 | CNC(=O)c1cc(C2CC2)nc2c1c(C1CCN([S+](=O)([O-])c3c(C)noc3C)CC1)nn2C | inactive: 38.3%
18 | COc1ccc([C@H]2C[C@@H](O)[C@@H](O)[C@@H]2NC(=O)C(C)C)cc1 | inactive: -7.3% [at 57.5 µM]
19 | Cc1ccc(-n2cc(CN3CCN4CCCC4C3)c(-c3cccc(C)c3)n2)cc1 (centres undefined) | inactive: -0.0696%
20 | COc1ccc(CCNc2ncnc3c2CN(c2ccc(C)cc2)C(=O)CN3C)cc1 | inactive: 29.7%
21 | CC(C)CNC(=O)CN1CCOc2c(O)cc(-c3cccc(Cl)c3)cc2C1 | inactive: 3.1%

Two entries drawn at random from those above:
Row | SMILES | activity % (negative = inhibition)
8 | CC(=O)N1CC2(CCN(C(=O)NCc3ccccc3)CC2)CC1C(=O)O (centres undefined) | inactive: 6.85%
6 | COCCN1Cc2sccc2N(CC(O)COc2ccc(OC)cc2)CCC1=O (centres undefined) | inactive: 3.92%

Next compounds.

Row | SMILES | activity % (negative = inhibition)
22 | CCN1CC(C(=O)N(C)Cc2ccc(Oc3ccccc3)cc2)CCC1=O (centres undefined) | inactive: 17.5%
23 | O=C(c1cccnc1)N1CCn2cc(C(=O)N3CCOCC3)nc2C1 | inactive: 3.91%
24 | O[C@]1(c2ccccc2)CCN(Cc2ccncc2)C[C@H]1N1CCCC1 | inactive: 79.8%
25 | CSc1ccc(-c2ccc3c(c2)C(=O)N2CCN(C(=O)CCC(=O)O)C[C@@H]2C(=O)N3)cc1 | inactive: 21.6%
26 | CC(C)CS(=O)(=O)N[C@H](C)c1onc(-c2ccc(F)cc2)c1C(=O)O | inactive: -1.69% [at 57.5 µM]
27 | COc1cccc(S(=O)(=O)N2C[C@@H](Oc3cccnc3)C[C@H]2C(=O)NC2CC2)c1 | inactive: 2.2%
28 | Cc1cnn(CCC(=O)N2CCCC(c3nnc(Cn4ccnc4)n3C)C2)c1 (centres undefined) | inactive: -5.82%
29 | COc1ccc(CN2C(=O)CO[C@H]3CN(C(=O)C4CC4)C[C@H]32)cc1 | inactive: 7.15% [at 57.5 µM]
30 | C=CCNC(=O)N1CC[C@H]2CC(=O)N(C3CC3)CC[C@H]2C1 | inactive: 5.67% [at 77.1 µM]
31 | C=CCNC(=O)N[C@H]1CCN(C(=O)CSC)[C@@H]1C(=O)N1CCC[C@@H]1C(N)=O | inactive: 2.76% [at 57.5 µM]
32 | O=C(C1CCC1)N1CCOc2ccc(CN3CCc4ccccc4C3)cc2C1 | inactive: 12.7%
33 | CCNC(=O)[C@@H]1C[C@H](N)CN1C(=O)c1cnc(-c2cccnc2)nc1C | inactive: -0.639%
34 | Fc1ccc(OC2CN(CC3CCCCC3)C2)c(F)c1 | inactive: -16.1% [at 57.5 µM]
35 | CN(C)C[C@@H]1CN(c2ncccn2)C[C@H]1NS(=O)(=O)Cc1ccc(F)cc1 | inactive: 34.2%
36 | Cc1c(F)cccc1NC(=O)N1C[C@@H](F)C[C@H]1C(=O)N1CCOCC1 | inactive: -3.22%
37 | Cc1nc2cnccn2c1C(=O)NCc1ccccc1 | inactive: 1.43% [at 57.5 µM]
38 | COc1cccc(CN2CCCC3(CNc4ccccc4[S+](=O)([O-])N3)C2)c1 (centres undefined) | inactive: 3.03%
39 | OCC1(CCCc2ccccc2)CCCNC1 (centres undefined) | inactive: 1.05%
40 | CCn1c2c(c(=O)n1Cc1ccccc1)CCN(C(=O)c1scnc1C)C2 | inactive: -7.51% [at 57.5 µM]
41 | CN(CC1CCOCC1)S(=O)(=O)c1ccc(Cl)s1 | inactive: -0.576%
42 | Cc1ccc2c(C(=O)NCc3ccc(C(F)(F)F)cc3)cc(NC(=O)C(C)C)cc2n1 | inactive: 8.15%

A different layout for part of the listing above:
Row,SMILES,activity % (negative = inhibition)
28,Cc1cnn(CCC(=O)N2CCCC(c3nnc(Cn4ccnc4)n3C)C2)c1 (centres undefined),inactive: -5.82%
29,COc1ccc(CN2C(=O)CO[C@H]3CN(C(=O)C4CC4)C[C@H]32)cc1,inactive: 7.15% [at 57.5 µM]

Next compounds.

Row | SMILES | activity % (negative = inhibition)
43 | COC(=O)C1=CN(CC(=O)NCCCc2ccccc2)S(=O)(=O)N=C1C | inactive: -0.481%
44 | Cn1cc(CNC(=O)c2ccc(S(=O)(=O)N[C@@H]3CCNC3)cc2)cn1 | inactive: -0.515%
45 | CS(=O)(=O)N1CCC(C2CCN(Cc3ccc4c(c3)CCO4)C2)CC1 (centres undefined) | inactive: -3.05%
46 | CC1=C(C(=O)Nc2ccccc2)C(c2cc(C)ccc2C)N2C(CC(=O)N3CCCC3)=CSC2=N1 (centres undefined) | inactive: 5.08%
47 | CCOC(=O)C1CCCN(C(=O)C2CCc3nnc(C4CCN(C(C)=O)CC4)n32)C1 (centres undefined) | inactive: -3.56% [at 57.5 µM]
48 | O=c1cc(-c2ccncc2)oc2c(-c3cccc(CO)c3)nccc12 | inactive: 12.1% [at 57.5 µM]
49 | CCN1CCN(C(=O)C2CCc3ncc(-c4ccsc4)n3C2)CC1 (centres undefined) | inactive: 0.375%
50 | O=C(NCC1CCCCC1)c1cc(-c2cc(Cl)cc(Cl)c2)c2nncn2n1 | inactive: 9.48%
51 | COC(=O)[C@H](NC(=O)[C@@H]1C[C@H](NC(=O)Nc2ccc(OC)cc2)CN1C(=O)c1cccn1C)C(C)C | inactive: 20.5%
52 | O=C(NC1CC1)c1nc(-c2ccc(F)cc2)c2cnccn12 | inactive: 0.827%
53 | CC(C)OC(=O)N1CCC(COc2cnc3c(ccn3CC(N)=O)c2)CC1 | inactive: 7.35% [at 57.5 µM]
54 | COCCN(Cc1ccccc1F)Cc1cc2c(cc1OC)OCO2 | inactive: -0.046%
55 | Cc1cnc(CC2CCCN(Cc3ccc(F)cc3F)C2)n1Cc1ccccc1 (centres undefined) | inactive: 5.38%
56 | CC1CCN(c2ncncc2-c2nc(-c3ccccc3)no2)CC1 | inactive: -13.3%
57 | CC(=O)N1CCC(N2CCC[C@H]2c2nc(-c3ccc(-c4ccncc4)nc3)no2)CC1 | inactive: 22.7% [at 57.5 µM]
58 | CN(CCc1ccccn1)C(=O)[C@@]12CCCC[C@H]1N(C)C(=O)CC2 | inactive: 15.5%
59 | COC[C@H]1C[C@@H](NC2CCN(C(C)=O)CC2)[C@H](O)[C@@H]1O | inactive: 0.078% [at 77.1 µM]
60 | Cc1cnc(C2CCC2)n1CC1CCN(C(=O)COCc2ccccc2)C1 (centres undefined) | inactive: -5.28%
61 | CC(=O)Nc1cccc(CN2CCC(N3CCCNC3=O)CC2)c1 | inactive: -0.602% [at 57.5 µM]
62 | COc1ccc(CC(=O)N(C)C2CCc3nnc(C)n3CC2)cc1Cl (centres undefined) | inactive: -0.188%
63 | COCCn1cnnc1CCNC(=O)c1oc2cc(OC)ccc2c1C | inactive: 15.6%

Row | SMILES | activity % (negative = inhibition)
64 | COCCNc1ncc(-c2ccc(F)cc2)c2c1OCC2 | inactive: 14.1% [at 77.1 µM]
65 | COc1ccc(CCC(=O)N2CCC3(CC2)CC(C(=O)N2CCOCC2)N(C)C3)cc1 (centres undefined) | inactive: 7.21%
66 | Cn1cccc1CN1CCC2(C1)C(=NC1CCCC1)NC(=O)N2c1cccnc1 (centres undefined) | inactive: 4.75%
67 | NCCCC(=O)N1CCCC2(Cc3ccccc3CN2C(=O)c2cccc(Cl)c2)C1 (centres undefined) | inactive: 9.24%
68 | CCN1C(=O)C2CC3(CCN(Cc4cnn(CC)c4C)CC3)CN2C1=O (centres undefined) | inactive: 6.1%
69 | Cc1cn2nc(C(=O)NCc3cccnc3)cc2c(=O)[nH]1 | inactive: 12.3%
70 | COc1nccnc1-c1cc(NCCN(C)C)nc2[nH]ccc12 | inactive: 3.36%
71 | COc1cc(=O)n2c(c1C(=O)N1CCN(c3ccc(C)cc3C)CC1)CCCC2 | inactive: 2.82%
72 | O=C(C1CCCC1)N1CCCC(c2nn[nH]n2)C1 (centres undefined) | inactive: 10.3%
73 | O=C(NCc1cc2n(n1)CCCN(C1CCCCC1)C2)c1cccc(F)c1 | inactive: -4.41%
74 | CCNC(=O)[C@@H]1C[C@H](N)CN1C(=O)C(C)(C)Oc1ccc(C)cc1 | inactive: 9.75%
75 | COc1cccc([S+](=O)([O-])N2CC(N3CCc4ccccc43)C2)c1 | inactive: -0.594%
76 | N#Cc1cc(CN2CCCC(C(=O)Nc3cccc(-c4ccc(F)cc4)c3)C2)c[nH]1 (centres undefined) | inactive: 0.808%
77 | Cc1noc2nc3c(c(C(=O)N[C@H]4CC[C@H]4N)c12)CCC3 | inactive: 11.1%
78 | CCCCN1C(=O)c2ccccc2C(C(=O)NC2CC2)C12CCCCC2 (centres undefined) | inactive: 15.3%
79 | O=C(NCC1CC1)C1CCc2ncc(-c3ccc(F)cc3)n2C1 (centres undefined) | inactive: 20.8%
80 | CC(C)C[C@H](NC(=O)[C@@H]1C[C@@H](n2nnc(C(N)=O)c2C(N)=O)CCN1C(=O)c1cnccn1)C(N)=O | inactive: 7.56%
81 | O=C(NCC1CCCO1)N1CCCCCCn2c(nnc2-c2ccc(F)cc2)CC1 (centres undefined) | inactive: -1.27%
82 | Cc1ccc(C2(O)CCN(c3nc(C)ccc3C(N)=O)CC2)nc1 | inactive: -1.02%
83 | O=S(=O)(c1ccccc1)N1CCC(F)(c2nc(-c3ccncc3)no2)CC1 | inactive: 5.28%
84 | O=C1COc2ccc(OCc3cncs3)nc2CN1Cc1ccc(F)cc1 | inactive: 17.5% [at 57.5 µM]
